In publication PMC8329493:
These are yes or no findings as the source states them, for the method shown. In cells and extracts the contact can be indirect. Some entries that bind do so weakly or less than the wild type.

Sequences of proteins named here, by UniProt entry; tags and fusion partners are left off. Residues count along the entry.
UniProt Q9BXM7, residues 78-581: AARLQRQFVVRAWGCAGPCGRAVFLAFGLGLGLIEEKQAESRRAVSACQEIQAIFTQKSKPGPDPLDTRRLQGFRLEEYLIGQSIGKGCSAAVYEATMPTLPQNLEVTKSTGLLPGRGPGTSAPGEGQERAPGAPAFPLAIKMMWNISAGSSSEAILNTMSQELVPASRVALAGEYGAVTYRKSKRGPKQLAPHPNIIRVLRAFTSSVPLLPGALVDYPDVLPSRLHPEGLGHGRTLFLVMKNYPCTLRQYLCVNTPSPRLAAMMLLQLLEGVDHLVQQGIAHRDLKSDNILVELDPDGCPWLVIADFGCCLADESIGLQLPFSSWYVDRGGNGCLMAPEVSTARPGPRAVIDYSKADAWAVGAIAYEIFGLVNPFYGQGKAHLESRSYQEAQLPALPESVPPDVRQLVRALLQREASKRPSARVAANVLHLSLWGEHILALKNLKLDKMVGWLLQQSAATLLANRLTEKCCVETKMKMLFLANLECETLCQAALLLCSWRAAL
UniProt O15379: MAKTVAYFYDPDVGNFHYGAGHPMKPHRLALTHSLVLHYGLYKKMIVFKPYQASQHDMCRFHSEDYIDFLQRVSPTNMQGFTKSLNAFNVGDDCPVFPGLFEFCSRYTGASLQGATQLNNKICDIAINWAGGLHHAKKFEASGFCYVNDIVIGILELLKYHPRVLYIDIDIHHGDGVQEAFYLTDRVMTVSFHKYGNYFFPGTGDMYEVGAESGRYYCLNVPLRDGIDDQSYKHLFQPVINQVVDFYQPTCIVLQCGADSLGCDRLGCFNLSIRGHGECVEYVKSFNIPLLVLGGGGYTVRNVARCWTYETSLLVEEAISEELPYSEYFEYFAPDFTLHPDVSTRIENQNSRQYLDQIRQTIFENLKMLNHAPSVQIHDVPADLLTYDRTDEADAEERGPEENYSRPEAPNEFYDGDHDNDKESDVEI
UniProt O43524: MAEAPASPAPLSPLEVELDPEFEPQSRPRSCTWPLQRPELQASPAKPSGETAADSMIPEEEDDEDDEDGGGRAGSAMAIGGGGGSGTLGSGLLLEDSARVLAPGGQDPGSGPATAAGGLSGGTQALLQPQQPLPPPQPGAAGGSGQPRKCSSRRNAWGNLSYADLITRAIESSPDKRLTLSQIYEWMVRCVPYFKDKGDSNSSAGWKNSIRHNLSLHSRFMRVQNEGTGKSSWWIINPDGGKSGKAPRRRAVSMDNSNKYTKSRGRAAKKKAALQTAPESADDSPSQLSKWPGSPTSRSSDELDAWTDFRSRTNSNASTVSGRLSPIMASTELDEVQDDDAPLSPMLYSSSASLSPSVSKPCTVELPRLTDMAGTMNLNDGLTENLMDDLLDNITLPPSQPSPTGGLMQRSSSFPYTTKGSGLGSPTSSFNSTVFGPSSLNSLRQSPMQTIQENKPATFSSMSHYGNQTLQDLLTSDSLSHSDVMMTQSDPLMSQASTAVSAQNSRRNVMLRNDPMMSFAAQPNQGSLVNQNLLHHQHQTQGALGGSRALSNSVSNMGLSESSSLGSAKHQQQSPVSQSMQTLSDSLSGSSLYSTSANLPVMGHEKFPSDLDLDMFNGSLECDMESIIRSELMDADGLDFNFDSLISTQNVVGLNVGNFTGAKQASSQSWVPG

Tests used:
[1] = target: PTEN-induced putative kinase 1 (human (endogenous in embryonic NSCs)) (UniProt Q9BXM7); assay: co-IP; endogenous proteins in lysate of human embryonic NSCs (some panels with sh-NC or sh-PINK1 knock-down); lysis buffer 50 mM Tris-HCl pH 7.4, 150 mM NaCl, 10% glycerol, 1 mM EDTA, 0.5% NP-40; anti-PINK1 or anti-HDAC3 antibody with protein A/G beads for 2 h; western blot
[2] = target: phosphorylated histone deacetylase3 (human (endogenous in embryonic NSCs)) (UniProt O15379); assay: as above

Row | binding [1] | binding [2] | Substance
1 | binds |  | histone deacetylase3 (from UniProt O15379 1-428)
2 | binds | binds | forkhead box O3 (from UniProt O43524 1-673)
